From PubChem BioAssay AID651804 (National Center for Advancing Translational Sciences (NCATS), 2012)
The whole screen tested about 1,200 compounds, of which about 20 (2%) were called active. Inconclusive results (about 23%) are left out. The call rests on the fitted dose curve; in most records, active means well fitted inhibition curve with a large enough effect; inconclusive means small, poorly fitted or top-dose-only effect; inactive means no such curve, though single readings can be large or run the other way. The list shows a part of the results.

Amino acid sequences for entries named in this document (tags omitted). A change or cut given only in a name is not applied to a line headed by its entry.
UniProt P11308: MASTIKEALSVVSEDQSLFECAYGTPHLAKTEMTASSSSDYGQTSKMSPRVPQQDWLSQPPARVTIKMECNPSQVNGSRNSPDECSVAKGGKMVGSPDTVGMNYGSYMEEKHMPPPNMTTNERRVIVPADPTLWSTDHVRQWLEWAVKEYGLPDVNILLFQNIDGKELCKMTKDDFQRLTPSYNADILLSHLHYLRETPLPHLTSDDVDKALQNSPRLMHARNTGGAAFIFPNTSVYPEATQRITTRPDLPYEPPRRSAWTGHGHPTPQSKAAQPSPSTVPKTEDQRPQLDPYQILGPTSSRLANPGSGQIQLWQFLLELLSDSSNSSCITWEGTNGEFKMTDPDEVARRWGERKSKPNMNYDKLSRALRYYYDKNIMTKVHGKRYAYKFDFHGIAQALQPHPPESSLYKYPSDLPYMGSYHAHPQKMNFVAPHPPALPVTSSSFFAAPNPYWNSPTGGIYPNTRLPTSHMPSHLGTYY

Each compound was assayed against Transcriptional regulator ERG (Homo sapiens) (UniProt P11308) (assay: qHTS for Small Molecule Inhibitors of the ERG Ets/DNA interaction: HTRF assay against cherry picks). Settings: His-ERG Ets domain with biotin-DNA; series mostly up to 154 µM; activity change, negative = inhibition: at the top concentration.
Method in brief: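 Compounds were incubated 10 min at RT with ERG Ets domain and biotinylated DNA (each added as 200 nM solution) in pH 7.5 Tris/KCl/EDTA/DTT buffer. Binding was read as FRET (ex 320, em 615 and 665 nm) between anti-His donor and streptavidin acceptor.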
Potency means the concentration at half of the fitted maximal effect.

Row | Structure (SMILES) | activity change, negative = inhibition | Potency
1 | Cc1ccc(NC(=S)NCc2ccc3c(c2)cc(C)n3C)c(C)c1 | inactive: 82.1% | 
2 | CCn1c(=O)cc(OCC(=O)Nc2ccccc2C#N)c2ccccc21 | inactive: 69.3% | 
3 | NC(=O)C1(N2CCCCC2)CCN(C(=O)CSc2nc3ccccc3s2)CC1 | inactive: -21.5% | 
4 | CSc1nc2c(c(=O)[nH]1)C(c1cccc(Br)c1)CC(=O)N2 (configuration not stated) | inactive: -7% | 
5 | COc1ccc(C(=O)N(C)Cc2ccc(C)o2)cc1OC1CCN(C(C)C)CC1 | inactive: -26.2% | 
6 | Cc1cc(NC(=O)CCC(=O)N(CC(=O)NC2CCCC2)c2ccc(C)c(F)c2)no1 | inactive: 6.26% | 
7 | CCOc1ccc2[nH]c3c(NCCO)ncnc3c2c1 | inactive: -19.4% | 
8 | CC(=O)Nc1ccc(NC(=O)C(C)OC(=O)C2CCN(S(=O)(=O)c3ccc4c(c3)OCCO4)CC2)cc1 (configuration not stated) | inactive: 3.93% | 
9 | Cc1ccccc1C(=O)N/N=C1/SCC(=O)N1Cc1ccccc1 | inactive: 1.11% | 
10 | Oc1ccc(NCc2ccccc2OCc2ccccc2)cc1 | inactive: -15.4% | 
11 | COc1ccc(-c2n(CC(=O)OC3CC(C)CCC3C(C)C)c3ccccc3[n+]2C)cc1 (configuration not stated) | inactive: -5.73% | 
12 | COc1ccc(OC)c(NC(=O)c2cn3c4c(ccc(Cl)c4c2=O)OC(C)C3)c1 (configuration not stated) | inactive: 20.2% | 
13 | CCN(C(=O)COC(=O)CSc1ccc(C)cc1C)c1c(N)n(Cc2ccccc2)c(=O)[nH]c1=O | inactive: -40.2% | 
14 | COc1cccc(CN2CCN(S(=O)(=O)c3ccc(NC(C)=O)cc3)CC2)c1OC | inactive: -6.05% | 
15 | O=C1C(=O)c2ccccc2C(O)=C1C1CCC(c2ccc(Cl)cc2)CC1 (configuration not stated) | inactive: -24% | 
16 | OC(Cn1cnnc1)c1ccccc1 (configuration not stated) | inactive: -24.8% | 
17 | O=C(Nc1ccccc1)Nc1ncc([N+](=O)[O-])s1 |  | active: 39.8 µM
18 | Clc1ccc(-c2cc3ccccc3nc2N2CCOCC2)cc1 | inactive: 12.8% | 
19 | CCCn1c(=O)c(C(=O)NNS(=O)(=O)c2ccc(C)cc2)c(O)c2ccccc21 | inactive: -38.8% | 
20 | O=C(NCCc1ccc(Cl)cc1)C1CCCN1C(=O)Nc1ccccc1 (configuration not stated) | inactive: -5.62% | 
21 | Cc1ccc(CNC(=O)COc2ccc(S(=O)(=O)N3CCCC3)cc2)cc1 | inactive: -19.6% | 
22 | COc1ccc(CCCC(=O)Nc2cc(C)ccc2OC)cc1 | inactive: -22.2% | 
23 | O=C(C1CCN(Cc2ccc(F)cc2)CC1)N1CCN(C/C=C/c2ccccc2)CC1 | inactive: -29.8% | 
24 | CN(C)N=Nc1ccc(S(=O)(=O)NC(Cc2ccccc2)C(=O)O)cc1 (configuration not stated) | inactive: -18% | 
25 | Cc1cccc(OCc2ccc(C(=O)N3CCOCC3)o2)c1 | inactive: -31.2% | 
26 | c1ccc(Nc2ncnc3[nH]ncc23)cc1 | inactive: -22% | 

Pulled one by one from the list above (2):
Row | Structure (SMILES) | activity change, negative = inhibition | Potency
18 | Clc1ccc(-c2cc3ccccc3nc2N2CCOCC2)cc1 | inactive: 12.8% | 
4 | CSc1nc2c(c(=O)[nH]1)C(c1cccc(Br)c1)CC(=O)N2 (configuration not stated) | inactive: -7% | 

(next part)

Row | Structure (SMILES) | activity change, negative = inhibition | Potency
27 | Cc1ccc(C(=O)NCC(=O)NCCCc2ccccc2)s1 | inactive: -29.7% | 
28 | Cc1ccc(NC(=S)NC(=O)c2cncc(Br)c2)cc1Cl | inactive: -29.5% | 
29 | CC(=O)Nc1ccc(CCCCc2ccc(NC(C)=O)cc2)cc1 | inactive: -1.91% | 
30 | CCn1cc(C(=O)NCc2ccc(Cl)cc2)c(=O)c2cc(S(=O)(=O)N3CCOCC3)ccc21 | inactive: -10.3% | 
31 | CCn1c2ccccc2c2cc(NC(=O)COc3cc(C)ccc3C)ccc21 | inactive: -24.8% | 
32 | COc1ccc(-n2c(=O)c3c4c(sc3n(Cc3ccc(C(C)(C)C)cc3)c2=O)CCC4)c(OC)c1 | inactive: -17.8% | 
33 | Cc1noc(C)c1COC(=O)C1CCN(C(=O)c2ccc(Cl)cc2)CC1 | inactive: -18.2% | 
34 | COc1cc(CNc2ccc(CNc3ncn[nH]3)cc2)ccc1OCC(=O)NC(C)(C)C | inactive: -5.57% | 
35 | Cc1ccc(C(=O)N[C@H](C(=O)Nc2ccc(F)cc2)C(C)C)cc1 | inactive: -7.64% | 
36 | Cc1cc(C)nc(N2CCN(c3nnnn3-c3ccccc3)CC2)n1 | inactive: 3.18% | 
37 | O=C(NCC(=O)N1CCCC(C(F)(F)F)C1)c1cccs1 (configuration not stated) | inactive: -13.2% | 
38 | C#C[C@]1(O)CC[C@H]2[C@@H]3CCC4=CC(=O)CC[C@@H]4[C@H]3CC[C@@]21CC | inactive: -11% | 
39 | COc1cc(/C=C/C(=O)OC(C)C(=O)c2ccccc2)cc(OC)c1OC (configuration not stated) | inactive: 2.23% | 
40 | Nc1c(C(=O)NCc2ccc(Cl)cc2Cl)nnn1Cc1ccc(Br)cc1 | inactive: -9.18% | 
41 | COc1ccc(NC(=O)COC(=O)C2CC(=O)N(c3ccc(C)cc3)C2)cc1 (configuration not stated) | inactive: -13.3% | 
42 | O=C(Nc1ccccc1Cl)c1ccc(Cl)cc1Cl | inactive: -5.15% | 
43 | Cc1ccnc(NC(=O)c2cccc(S(=O)(=O)Nc3ccc(C)cc3C)c2)c1 | inactive: -8.7% | 
44 | COc1ccccc1C(C)NC(=O)c1cc(S(=O)(=O)N2CCCCC2)ccc1C (configuration not stated) | inactive: 0.53% | 
45 | CCOC(=O)c1c(C)[nH]c(C(=O)COC(=O)CNC(=O)c2ccc(Cl)cc2Cl)c1C | inactive: 5.15% | 
46 | CC(=O)C(c1ccccc1)C(c1ccccc1)C(C)[N+](=O)[O-] (configuration not stated) | inactive: -25.3% | 
47 | COC(=O)[C@@]1(C)[C@H]2C(=O)N(Cc3ccccc3)C(=O)[C@H]2[C@H]2CN(C)C(=NC3CCCCC3)N21 | inactive: -18.7% | 
48 | O=C(COc1ccc(-c2ccccc2)cc1)N1CCN(C(=O)c2cccs2)CC1 | inactive: -23% | 
49 | CCOC(=O)c1cn(-c2nc(-c3ccc(Cl)c(Cl)c3)cs2)c2c(F)c(N3CCOCC3)c(F)cc2c1=O | inactive: 11.8% | 
50 | Cc1cccc(Cc2c(C)nc3nc(SCc4ccccc4Cl)nn3c2C)c1 | inactive: 8.7% | 
51 | O=C(NCCN1CCN(c2ccccc2)CC1)c1cccc(Br)c1 | inactive: -30.5% | 
52 | Cn1c(=O)oc2cc(S(=O)(=O)N3CCN(c4ccccc4F)CC3)ccc21 | inactive: -25.2% | 
